# Whole data set: some 33,000 sequences, median “E-score (-0.5 to 0.5)” near -0.016, cut for the highest 2% near 0.3. The list shows a part of the results.
# Target: T1, Yer184c (UniProt P39961)
# T1 sequence: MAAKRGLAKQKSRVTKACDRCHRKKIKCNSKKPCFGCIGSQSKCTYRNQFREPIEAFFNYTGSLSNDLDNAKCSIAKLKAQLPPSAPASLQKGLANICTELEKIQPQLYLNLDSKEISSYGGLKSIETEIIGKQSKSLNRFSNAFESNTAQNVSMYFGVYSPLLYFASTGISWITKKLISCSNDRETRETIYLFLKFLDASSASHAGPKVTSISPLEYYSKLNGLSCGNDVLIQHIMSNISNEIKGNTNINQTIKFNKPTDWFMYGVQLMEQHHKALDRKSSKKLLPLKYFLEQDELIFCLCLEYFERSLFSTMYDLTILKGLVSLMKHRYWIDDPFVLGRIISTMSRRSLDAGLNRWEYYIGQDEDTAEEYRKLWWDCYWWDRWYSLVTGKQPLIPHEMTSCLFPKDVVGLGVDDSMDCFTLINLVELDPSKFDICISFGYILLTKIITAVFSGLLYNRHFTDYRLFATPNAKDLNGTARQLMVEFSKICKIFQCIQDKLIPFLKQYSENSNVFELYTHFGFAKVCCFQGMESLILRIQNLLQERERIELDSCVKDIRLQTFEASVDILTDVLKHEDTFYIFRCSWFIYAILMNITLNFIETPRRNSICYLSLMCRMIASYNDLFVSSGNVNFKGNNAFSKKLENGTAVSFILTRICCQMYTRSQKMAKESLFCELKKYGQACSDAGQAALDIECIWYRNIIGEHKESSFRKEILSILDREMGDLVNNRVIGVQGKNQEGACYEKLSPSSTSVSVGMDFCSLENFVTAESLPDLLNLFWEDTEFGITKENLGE
# Assay: PBM E-score (8-mer binding enrichment) (E-score (-0.5 to 0.5)); higher = stronger / more preferred TF binding
# Settings: protein concentration: 100 nM; construct: GST-full length
# Procedure, shortened: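 Universal all-10-mer Agilent arrays, double-stranded by primer extension on fresh or once-stripped slides, were probed with about 100-200 nM GST-tagged yeast transcription factors made by PURExpress. Fluorescent anti-GST detected bound protein, and masliner normalised the scans. E-scores from the Universal PBM Analysis Suite were given to each ungapped eight-base word pooled with its reverse complement.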
row,Sequence,PBM E-score
1,ACTTAGCG,0.0253
2,GTGCACGA,-0.0665
3,CAGAGAGG,-0.415
4,GGAGTGAC,-0.0944
5,CCTTCTCG,-0.243
6,ATGATATG,0.138
7,AAGTCTAG,-0.181
8,ACCATGAC,-0.0281
9,ACACAGTA,0.0746
10,ATTTGACC,0.0125
11,GCAAGGAC,-0.0397
12,GCACCTGA,-0.0292
13,AAGACAAC,0.212
14,GCGGAAAA,0.216
15,AATCTAAA,0.207
16,CTGATATC,0.134
17,AGATGAGA,-0.0377
18,ACCCTGAT,-0.139
19,AACGATGG,-0.0405
20,ACAGAACT,0.116
21,CTTCGTGA,-0.00663
22,ATGGGTGC,-0.281
23,AGGAGTCC,-0.12
24,AAACACTC,0.0552
25,AGGATCTC,-0.0255

# At a glance, some entries already given:
row,Sequence,PBM E-score
7,AAGTCTAG,-0.181
8,ACCATGAC,-0.0281
9,ACACAGTA,0.0746
10,ATTTGACC,0.0125

# Next part.

row,Sequence,PBM E-score
1,CTGCACAA,-0.00089
2,CAACCGAC,0.238
3,AGCACACA,-0.194
4,TCTGCACA,0.0639
5,GACTGTTA,-0.0838
6,CTGTTCCA,-0.166
7,AAGCAGGC,-0.229
8,ATCATCCG,0.165
9,TCGGCACA,0.307
10,ACCCGGCT,0.22
11,GACGGCCC,-0.168
12,CCGAGTTA,0.148
13,AGAAGGGG,-0.34
14,CATCCTTA,-0.193
15,CCGCCTCA,-0.051
16,CCTGCGCG,-0.0323
17,CCAGGGAG,-0.322
18,ATTGACTA,-0.0705
19,CTCTTGGA,-0.00521
20,GAAATCTC,0.00773
21,GGCCGTCA,0.0446
22,ATTTGATG,0.115
23,ACGCTCTG,-0.182
24,CCACCATA,-0.167
25,GTCTCCCA,-0.222

row,Sequence,PBM E-score
1,ACATTCAC,-0.0401
2,ACGTTAAC,0.00042
3,CGAAGATA,0.231
4,ACAGCTGA,-0.0777
5,ACGTCGGA,0.0419
6,AGAATTAT,0.111
7,CATGGACG,-0.0364
8,CGCGCCGC,0.135
9,CGCTCCCG,-0.0233
10,CTGTGCCA,-0.0934
11,ACCAACCC,-0.22
12,ACTGCTCC,-0.0256
13,AGTCGGGC,-0.0974
14,GGAGCTGA,-0.0113
15,AACGCGTG,0.0356
16,CTTCCTCC,-0.0749
17,AGGTTCAG,0.0607
18,CTTAAAAA,0.145
19,AAGTCACC,-0.132
20,CTAAGCTA,0.0398
21,AAGGGTAA,-0.0664
22,GATGGTCA,-0.128
23,CCAGAGGA,-0.168
24,AAATCAGG,-0.103
25,ACACGAGG,-0.0752

row,Sequence,PBM E-score
1,CCGAACGC,0.274
2,CCTCCGAG,0.129
3,TGCAAGAA,0.163
4,GGATCGGA,0.228
5,GAATGGAA,0.112
6,CTTAGATC,-0.0885
7,CTGAACAA,0.155
8,CGAAATCG,0.188
9,ACGGCTAG,0.0936
10,GGTGACTA,-0.0917
11,AACCCATT,-0.0907
12,CCTGATGC,0.0164
13,ACTGTATG,-0.0118
14,CGGCCAGA,0.173
15,CACGTCAC,-0.147
16,GGGATCCA,-0.0871
17,CGTGTAGA,0.119
18,CAATATAA,0.243
19,TGCGAGCA,-0.132
20,ATATAACG,0.255
21,CGTACGGC,-0.161
22,AGGTGACG,-0.211
23,AAGAGTCG,0.0268
24,ATTGAACA,0.168
25,ATACCCAG,-0.274

# A different layout for part of the listing above.
row | Sequence | PBM E-score
6 | CTTAGATC | -0.0885
7 | CTGAACAA | 0.155
8 | CGAAATCG | 0.188

# The results go on:

row,Sequence,PBM E-score
1,CCCGAGAA,0.234
2,CGCAGCGA,-0.0158
3,CGCGCGTC,0.0991
4,ATTGTCGC,0.0896
5,ATATGAGG,-0.119
6,GGCCACAA,-0.135
7,CGAAGCCC,-0.162
8,AAGCAGTG,-0.103
9,GAAACGGA,0.294
10,CGCAGGCC,0.0676
11,CCGGCACG,0.288
12,GGGTCCCA,-0.279
13,AAAGCTAG,-0.00385
14,CTCGAGGC,-0.141
15,CGGCTAAG,0.154
16,CCTCTATA,-0.193
17,ACGAAAAA,0.0994
18,CCCCGCAG,-0.138
19,GGAAGAAC,0.183
20,AATGTCGA,0.0454
21,CGACGACA,-0.193
22,AGGAGTCA,-0.117
23,ACCACGGC,0.0346
24,CGTTCGAG,-0.0991
25,ACGACTAC,-0.256

row,Sequence,PBM E-score
1,GCTGTGAC,-0.0758
2,TCTGTTCA,0.0199
3,CTATAGGA,-0.0867
4,ATCCTCCA,-0.0939
5,CAACAGTG,-0.128
6,ACACCCCA,-0.269
7,GAATTATA,0.193
8,ACTATGAG,-0.0187
9,CGATTGAG,0.00869
10,CTACTACA,0.16
11,CGGGCTTC,0.169
12,ACAGGAAC,0.00507
13,TTCATAAA,0.15
14,GGCGACGA,-0.207
15,AAATGCGA,0.0985
16,ACGTGGCA,-0.283
17,AGGTTGTA,0.0467
18,ACCCACGG,-0.117
19,CCGCCTCG,0.0564
20,CAATTGTC,-0.00589
21,ACACTACG,0.0127
22,GCATTGTA,-0.0913
23,GACTTATA,0.21
24,ATCTCGGA,0.31
25,AGTGTCGA,-0.00269

# Retrieved one by one from the list above (two):
row,Sequence,PBM E-score
5,CAACAGTG,-0.128
9,CGATTGAG,0.00869

# (list continues)

row,Sequence,PBM E-score
1,CCGTGCCA,-0.127
2,CACGAAAC,-0.0318
3,GGCAAAAC,0.0509
4,CCTCCAAC,-0.246
5,ACGATATA,0.112
6,CACAGAAG,-0.109
7,TCATCCGA,0.34
8,TAGCAGCA,0.00348
9,CCGACGCG,0.132
10,ACATGCTC,-0.0218
11,ATATAAGC,9e-05
12,TAATGGGA,-0.274
13,ATAAAAGG,0.0293
14,GAAATTTA,0.254
15,GGAAAGAC,-0.0831
16,AGTCCAAG,-0.155
17,TCTATTAA,0.136
18,GCAATACC,-0.107
19,GCGACCTA,0.0477
20,AGGACAAC,0.0373
21,CCTAAGCG,-0.139
22,GCTGGTGA,0.0279

# Reference: the supplement of paper PMC3334620
